Source: patent US11242354B2, “4-sulfur substituted podophyllotoxin derivative and preparation method therefor and use thereof” (priority 2017, dated 2022)
At least one structure is not confirmed: it was looked up by name or label, or the drawing left a doubt. Some entries share one result that the patent states for a list of compounds.

Experiments:
HepG2 = test: MTT test for inhibition of tumor cells, HepG2; assay type: cell-based
HeLa = test: MTT test for inhibition of tumor cells, HeLa; assay type: cell-based
[1] = test system: human normal hepatocytes HL-7702; test: MTT test on human normal hepatocytes HL-7702
breast cancer cell MCF7 = test: Activity on tumor cell MCF7; assay type: cell-based, human; conditions: tumor cell line MCF7

4β-S-(3-phenyl-1,3,4-thiadiazol-2(3H)thione potassium salt-5)-4demethylepipodophyllotoxin [Compound 26]
antitumor activity on HepG2 compared with control compounds (HepG2): obviously improved | antitumor activity on HeLa compared with control compounds (HeLa): obviously improved

4β-S-(3-phenyl-1,3,4-thiadiazol-2(3H)thione potassium salt-5)-podophyllotoxin [Compound 25]
antitumor activity on HepG2 compared with control compounds (HepG2): obviously improved | antitumor activity on HeLa compared with control compounds (HeLa): obviously improved

4β-S-(5-phenylbenzoxazol-2)-4demethylepipodophyllotoxin [Compound 12]
antitumor activity on HepG2 compared with control compounds (HepG2): obviously improved | antitumor activity on HeLa compared with control compounds (HeLa): obviously improved | antitumor activity on HL-7702 compared with control compounds [1]: obviously improved

4β-S-(5-phenylbenzoxazol-2)-podophyllotoxin [Compound 11]
antitumor activity on HepG2 compared with control compounds (HepG2): obviously improved | antitumor activity on HeLa compared with control compounds (HeLa): obviously improved | antitumor activity on HL-7702 compared with control compounds [1]: obviously improved

4β-S-(6-chlorobenzoxazol-2)-4demethylepipodophyllotoxin [Compound 16]
antitumor activity on HepG2 compared with control compounds (HepG2): obviously improved | antitumor activity on HeLa compared with control compounds (HeLa): obviously improved | antitumor activity on HL-7702 compared with control compounds [1]: obviously improved

4β-S-(6-chlorobenzoxazol-2)-podophyllotoxin [Compound 15]
antitumor activity on HepG2 compared with control compounds (HepG2): obviously improved | antitumor activity on HeLa compared with control compounds (HeLa): obviously improved | antitumor activity on HL-7702 compared with control compounds [1]: obviously improved

COc1cc(C2c3cc4c(cc3C(Sc3cc(C(F)(F)F)ccn3)C3COC(=O)C23)OCO4)cc(OC)c1OC (stereo not drawn) [Compound 1, 4-β-S-(4-trifluoromethylpyridin-2)-podophyllotoxin]
antitumor activity on HepG2 compared with control compounds (HepG2): obviously improved | antitumor activity on HeLa compared with control compounds (HeLa): obviously improved | antitumor activity on HL-7702 compared with control compounds [1]: obviously improved

COc1cc(C2c3cc4c(cc3C(Sc3cc(C(F)(F)F)ccn3)C3COC(=O)C23)OCO4)cc(OC)c1O (stereo not drawn) [Compound 2, 4-β-S-(4-trifluoromethylpyridin-2)-4demethylepipodophyllotoxin]
antitumor activity on HepG2 compared with control compounds (HepG2): obviously improved | antitumor activity on HeLa compared with control compounds (HeLa): obviously improved | antitumor activity on HL-7702 compared with control compounds [1]: obviously improved

COc1cc(C2c3cc4c(cc3C(Sc3nccc(C(F)(F)F)n3)C3COC(=O)C23)OCO4)cc(OC)c1OC (stereo not drawn) [Compound 3, 4-β-S-(4-trifluoromethylpyrimidin-2)-podophyllotoxin]
antitumor activity on HepG2 compared with control compounds (HepG2): obviously improved | antitumor activity on HeLa compared with control compounds (HeLa): obviously improved | antitumor activity on HL-7702 compared with control compounds [1]: obviously improved

COc1cc(C2c3cc4c(cc3C(Sc3nccc(C(F)(F)F)n3)C3COC(=O)C23)OCO4)cc(OC)c1O (stereo not drawn) [Compound 4, 4-β-S-(4-trifluoromethylpyrimidin-2)-4demethylepipodophyllotoxin]
antitumor activity on HepG2 compared with control compounds (HepG2): obviously improved | antitumor activity on HeLa compared with control compounds (HeLa): obviously improved | antitumor activity on HL-7702 compared with control compounds [1]: obviously improved

COc1cc(C2c3cc4c(cc3C(Sc3ccc(F)cc3)C3COC(=O)C23)OCO4)cc(OC)c1OC (stereo not drawn) [Compound 5, 4β-S-(4-fluorobenzene-1)-podophyllotoxin]
antitumor activity on HepG2 compared with control compounds (HepG2): obviously improved | antitumor activity on HeLa compared with control compounds (HeLa): obviously improved | antitumor activity on HL-7702 compared with control compounds [1]: obviously improved

COc1cc([C@@H]2c3cc4c(cc3[C@@H](Sc3ccc(F)cc3)[C@H]3COC(=O)[C@H]23)OCO4)cc(OC)c1O [Compound 6, 4β-S-(4-fluorobenzene-1)-4demethylepipodophyllotoxin]
antitumor activity on HepG2 compared with control compounds (HepG2): obviously improved | antitumor activity on HeLa compared with control compounds (HeLa): obviously improved | antitumor activity on HL-7702 compared with control compounds [1]: obviously improved

COc1cc(C2c3cc4c(cc3C(Sc3nc5cc(F)ccc5s3)C3COC(=O)C23)OCO4)cc(OC)c1OC (stereo not drawn) [Compound 7, 4β-S-(5-fluorobenzothiazol-2)-podophyllotoxin]
antitumor activity on HepG2 compared with control compounds (HepG2): obviously improved | antitumor activity on HeLa compared with control compounds (HeLa): obviously improved | antitumor activity on HL-7702 compared with control compounds [1]: obviously improved

COc1cc([C@@H]2c3cc4c(cc3[C@@H](Sc3nc5cc(F)ccc5s3)[C@H]3COC(=O)[C@H]23)OCO4)cc(OC)c1O [Compound 8, 4β-S-(5-fluorobenzothiazol-2)-4demethylepipodophyllotoxin]
antitumor activity on HepG2 compared with control compounds (HepG2): obviously improved | antitumor activity on HeLa compared with control compounds (HeLa): obviously improved

COc1cc([C@@H]2c3cc4c(cc3[C@@H](Sc3nc5cc(F)ccc5o3)[C@H]3COC(=O)[C@H]23)OCO4)cc(OC)c1O [Compound 10, 4β-S -(5-fluorobenzoxazol-2)-4demethylepipodophyllotoxin]
IC50 MCF7 (breast cancer cell MCF7): L4 ± 0.10 μM | antitumor activity on HepG2 compared with control compounds (HepG2): obviously improved | antitumor activity on HeLa compared with control compounds (HeLa): obviously improved

COc1cc(C2c3cc4c(cc3C(Sc3nc5cc(C)ccc5o3)C3COC(=O)C23)OCO4)cc(OC)c1OC (stereo not drawn) [Compound 13, 4β-S-(5-methylbenzoxazol-2)-podophyllotoxin]
antitumor activity on HepG2 compared with control compounds (HepG2): obviously improved | antitumor activity on HeLa compared with control compounds (HeLa): obviously improved | antitumor activity on HL-7702 compared with control compounds [1]: obviously improved

COc1cc(C2c3cc4c(cc3C(Sc3nc5cc(C)ccc5o3)C3COC(=O)C23)OCO4)cc(OC)c1O (stereo not drawn) [Compound 14, 4β-S-(5-methylbenzoxazol-2)-4demethylepipodophyllotoxin]
antitumor activity on HepG2 compared with control compounds (HepG2): obviously improved | antitumor activity on HeLa compared with control compounds (HeLa): obviously improved | antitumor activity on HL-7702 compared with control compounds [1]: obviously improved

COc1cc(C2c3cc4c(cc3C(Sc3nc5cc(OC(F)F)ccc5[nH]3)C3COC(=O)C23)OCO4)cc(OC)c1OC (stereo not drawn) [Compound 17, 4β-S-(5-difluoromethoxybenzimidazol-2)-podophyllotoxin]
antitumor activity on HepG2 compared with control compounds (HepG2): obviously improved | antitumor activity on HeLa compared with control compounds (HeLa): obviously improved | antitumor activity on HL-7702 compared with control compounds [1]: obviously improved

COc1cc(C2c3cc4c(cc3C(Sc3nc5cc(OC(F)F)ccc5[nH]3)C3COC(=O)C23)OCO4)cc(OC)c1O (stereo not drawn) [Compound 18, 4β-S-(5-difluoromethoxybenzimidazol-2)-4demethylepipodophyllotoxin]
antitumor activity on HepG2 compared with control compounds (HepG2): obviously improved | antitumor activity on HeLa compared with control compounds (HeLa): obviously improved | antitumor activity on HL-7702 compared with control compounds [1]: obviously improved

COc1cc(C2c3cc4c(cc3C(Sc3ccc5ccccc5c3)C3COC(=O)C23)OCO4)cc(OC)c1OC (stereo not drawn) [Compound 19, 4β-S-(naphthalen-2)-podophyllotoxin]
antitumor activity on HepG2 compared with control compounds (HepG2): obviously improved | antitumor activity on HeLa compared with control compounds (HeLa): obviously improved | antitumor activity on HL-7702 compared with control compounds [1]: obviously improved

COc1cc([C@@H]2c3cc4c(cc3[C@@H](Sc3ccc5ccccc5c3)[C@H]3COC(=O)[C@H]23)OCO4)cc(OC)c1O [Compound 20, 4β-S-(naphthalen-2)-4demethylepipodophyllotoxin]
antitumor activity on HepG2 compared with control compounds (HepG2): obviously improved | antitumor activity on HeLa compared with control compounds (HeLa): obviously improved | antitumor activity on HL-7702 compared with control compounds [1]: obviously improved

COc1cc(C2c3cc4c(cc3C(Sc3nc5ncccc5[nH]3)C3COC(=O)C23)OCO4)cc(OC)c1OC (stereo not drawn) [Compound 21, 4β-S-(1H-imidazo [4,5-B]pyridin-2)-podophyllotoxin]
antitumor activity on HepG2 compared with control compounds (HepG2): obviously improved | antitumor activity on HeLa compared with control compounds (HeLa): obviously improved | antitumor activity on HL-7702 compared with control compounds [1]: obviously improved

COc1cc([C@@H]2c3cc4c(cc3[C@@H](Sc3nc5ncccc5[nH]3)[C@H]3COC(=O)[C@H]23)OCO4)cc(OC)c1O [Compound 22, 4β-S-(1H-imidazo[4,5B]pyridin-2)-4demethylepipodophyllotoxin]
antitumor activity on HepG2 compared with control compounds (HepG2): obviously improved | antitumor activity on HeLa compared with control compounds (HeLa): obviously improved | antitumor activity on HL-7702 compared with control compounds [1]: obviously improved

COc1cc(C2c3cc4c(cc3C(Sc3nnnn3-c3ccccc3)C3COC(=O)C23)OCO4)cc(OC)c1OC (stereo not drawn) [Compound 23, 4β-S-(1-phenyltetrazol-5)-podophyllotoxin]
antitumor activity on HepG2 compared with control compounds (HepG2): obviously improved | antitumor activity on HeLa compared with control compounds (HeLa): obviously improved | antitumor activity on HL-7702 compared with control compounds [1]: obviously improved

COc1cc([C@@H]2c3cc4c(cc3[C@@H](Sc3nnnn3-c3ccccc3)[C@H]3COC(=O)[C@H]23)OCO4)cc(OC)c1O [Compound 24, 4β-S-(1-phenyltetrazol-5)-4demethylepipodophyllotoxin]
antitumor activity on HepG2 compared with control compounds (HepG2): obviously improved | antitumor activity on HeLa compared with control compounds (HeLa): obviously improved | antitumor activity on HL-7702 compared with control compounds [1]: obviously improved

COc1cc([C@@H]2c3cc4c(cc3[C@@H](Sc3nc(-c5ccncc5)cs3)[C@H]3COC(=O)[C@H]23)OCO4)cc(OC)c1OC [Compound 27, 4β-S-(4-(4-pyridyl)thiazol-2)-podophyllotoxin]
antitumor activity on HepG2 compared with control compounds (HepG2): obviously improved | antitumor activity on HeLa compared with control compounds (HeLa): obviously improved | antitumor activity on HL-7702 compared with control compounds [1]: obviously improved

COc1cc([C@@H]2c3cc4c(cc3[C@@H](Sc3nc(-c5ccncc5)cs3)[C@H]3COC(=O)[C@H]23)OCO4)cc(OC)c1O [Compound 28, 4β-S-(4-(4-pyridyl)thiazol-2)-4demethylepipodophyllotoxin]
antitumor activity on HepG2 compared with control compounds (HepG2): obviously improved | antitumor activity on HeLa compared with control compounds (HeLa): obviously improved | antitumor activity on HL-7702 compared with control compounds [1]: obviously improved
